Binding data for eleven molecules are collected here from patent publication US20210024639A1 (AGOMAB THERAPEUTICS, published 2021).

The chains behind the UniProt entries cited, without tags or fusion partners. Where a name states a change or a piece, a line headed by the entry shows the natural chain unless it says otherwise. Residues count along the entry.
UniProt P08581: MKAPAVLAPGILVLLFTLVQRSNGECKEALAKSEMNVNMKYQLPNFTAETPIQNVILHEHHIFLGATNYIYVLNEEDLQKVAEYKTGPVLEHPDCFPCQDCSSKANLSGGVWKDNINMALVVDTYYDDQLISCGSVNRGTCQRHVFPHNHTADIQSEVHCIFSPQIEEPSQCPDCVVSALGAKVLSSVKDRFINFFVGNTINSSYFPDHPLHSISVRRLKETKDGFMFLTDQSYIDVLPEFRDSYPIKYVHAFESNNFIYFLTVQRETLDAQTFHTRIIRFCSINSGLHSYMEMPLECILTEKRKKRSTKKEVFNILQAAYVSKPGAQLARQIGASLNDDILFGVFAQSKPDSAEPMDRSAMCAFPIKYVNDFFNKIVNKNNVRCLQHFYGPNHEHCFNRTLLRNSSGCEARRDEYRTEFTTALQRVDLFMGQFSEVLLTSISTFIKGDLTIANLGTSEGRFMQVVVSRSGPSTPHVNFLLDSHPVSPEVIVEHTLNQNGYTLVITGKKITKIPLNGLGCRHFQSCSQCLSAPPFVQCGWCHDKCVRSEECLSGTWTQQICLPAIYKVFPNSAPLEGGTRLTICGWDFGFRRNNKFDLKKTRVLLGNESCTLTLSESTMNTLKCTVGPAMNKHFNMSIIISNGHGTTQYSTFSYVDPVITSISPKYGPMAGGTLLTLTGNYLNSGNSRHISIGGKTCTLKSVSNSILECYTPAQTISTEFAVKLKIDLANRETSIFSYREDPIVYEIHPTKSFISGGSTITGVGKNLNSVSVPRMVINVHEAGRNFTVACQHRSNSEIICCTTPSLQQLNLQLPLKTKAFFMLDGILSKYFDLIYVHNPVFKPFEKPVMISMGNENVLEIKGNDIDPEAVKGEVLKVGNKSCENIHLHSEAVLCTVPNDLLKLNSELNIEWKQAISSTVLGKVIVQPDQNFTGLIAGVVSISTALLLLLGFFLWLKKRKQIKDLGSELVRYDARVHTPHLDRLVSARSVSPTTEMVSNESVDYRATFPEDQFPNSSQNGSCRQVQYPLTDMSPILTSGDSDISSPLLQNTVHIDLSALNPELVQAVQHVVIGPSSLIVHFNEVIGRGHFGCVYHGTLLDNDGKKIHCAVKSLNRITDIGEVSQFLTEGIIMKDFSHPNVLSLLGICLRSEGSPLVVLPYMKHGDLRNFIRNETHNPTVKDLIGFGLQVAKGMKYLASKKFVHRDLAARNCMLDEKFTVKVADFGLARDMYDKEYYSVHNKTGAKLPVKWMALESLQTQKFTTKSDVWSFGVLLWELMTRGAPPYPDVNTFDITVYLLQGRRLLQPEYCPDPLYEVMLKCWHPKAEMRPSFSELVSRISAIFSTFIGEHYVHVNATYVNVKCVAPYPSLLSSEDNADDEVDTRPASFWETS
SEMA-PSI-IPT 1-2 (human MET ECD lacking IPT domains 3 and 4): residues 25-741 of P08581
SEMA-PSI (human MET ECD lacking IPT domains 1-4): residues 25-562 of P08581
isolated SEMA domain of human MET: residues 27-515 of P08581

These are yes or no findings as the source states them, for the method shown. Some entries that bind do so weakly or less than the wild type.

Common to all, as to assay: ELISA, MET deletion mutant in solid phase, mAb 0-50 nM
The target of assay [1] is SEMA-PSI (human MET ECD lacking IPT domains 1-4) (human) (UniProt P08581).
For assay [2], the target named is SEMA-PSI-IPT 1-2 (human MET ECD lacking IPT domains 3 and 4) (human) (UniProt P08581).
The target of assay [3] is isolated SEMA domain of human MET (human) (UniProt P08581).

B1: chimeric llama-human IgG1 mAb 71D6 (antibody, V domains shown)
VH: ELQLVESGGGLVQPGGSLRLSCAASGFTFSSYGMSWVRQAPGKGLEWVSAINSYGGSTSYADSVKGRFTISRDNAKNTLYLQMNSLKPEDTAVYYCAKEVRADLSRYNDYESYDYWGQGTQVTVSS
VL: QPVLNQPSALSVTLGQTAKITCQGGSLGARYAHWYQQKPGQAPVLVIYDDDSRPSGIPERFSGSSSGGTATLTISGAQAEDEGDYYCQSADSSGSVFGGGTHLTVL
Turning to B1, the binding result in assay [1], in assay [2] and in assay [3] was “binds” throughout.

B2: chimeric llama-human IgG1 mAb 71C3 (antibody, V domains shown)
VH: QLQLVESGGGLVQPGGSLRLSCAASGFTFSSHAMSWVRQAPGKGLEWVSAINSGGGSTSYADSVKGRFTISRDNAKNTLYLQMNSLKPEDTAVYYCAKELRFDLARYTDYEAWDYWGQGTQVTVSS
VL: SYELTQPSALSVTLGQTAKITCQGGSLGSSYAHWYQQKPGQAPVLVIYDDDSRPSGIPERFSGSSSGGTATLTISGAQAEDEGDYYCQSADSSGNAAVFGGGTHLTVL
On to B2, for which the binding entry in assay [1], in assay [2] and in assay [3] was “binds” in each case.

B3: chimeric llama-human IgG1 mAb 71D4 (antibody, V domains shown)
VH: ELQLVESGGGLVQPGGSLRLSCAASGFTFSGYGMSWVRQAPGKGLEWVSDINSGGGSTSYADSVKGRFTISRDNAKNTLYLQMNSLKPEDTAVYYCAKDMRLYLARYNDYEAWDYWGQGTQVTVSS
VL: SSALTQPSALSVTLGQTAKITCQGGSLGSSYAHWYQQKPGQAPVLVIYDDDSRPSGIPERFSGSSSGGTATLTISGAQAEDEGDYYCQSADSSGNAAVFGGGTHLTVL
With B3, the binding result in assay [1], in assay [2] and in assay [3] was “binds” throughout.

B4: chimeric llama-human IgG1 mAb 76H10 (antibody, V domains shown)
VH: QLQLVESGGGLVQPGGSLRVSCTASGFTFNTYYMTWVRQAPGKGLEWVSDINSGGGTYYADSVKGRFTISRDNAKNTLYLQMNSLKPEDTALYYCVRVRIWPVGYDYWGQGTQVTVSS
VL: QAVVTQEPSLSVSPGGTVTLTCGLSSGSVTTSNYPGWFQQTPGQAPRTLIYNTNNRHSGVPSRFSGSISGNKAALTITGAQPEDEADYYCSLYTGSYTTVFGGGTHLTVL
Take B4: the binding entry in assay [1] and in assay [2] was “binds” each time.

B5: chimeric llama-human IgG1 mAb 74C8 (antibody, V domains shown)
VH: EVQLVESGGGLVQPGGSLRLSCAASGFTFRNYHMSWVRQVPGKGFEWISDINSAGGSTYYADSVKGRFTISRDNAKNTLYLEMNSLKPEDTALYYCARVNVWGVNYWGKGTLVSVSS
VL: QTVVTQEPSLSVSPGGTVTLTCGLSSGSVTTSNYPGWFQQTPGQAPRTLIYNTNSRHSGVPSRFSGSISGNKAALTITGAQPEDEADYYCSLYPGSYTNVFGGGTHLTVL
For B5, the binding result in assay [1], in assay [2] and in assay [3] was “binds” each time.

B6: chimeric llama-human IgG1 mAb 71G2 (antibody, V domains shown)
VH: EVQLQESGGGLVQPGGSLRLSCAASGFTFSIYDMSWVRQAPGKGLEWVSTINSDGSSTSYVDSVKGRFTISRDNAKNTLYLQMNSLKPEDTAVYYCAKVYGSTWDVGPMGYGMDYWGKGTLVTVSS
VL: SSALTQPSALSVSLGQTARITCQGGSLGSSYAHWYQQKPGQAPVLVIYGDDSRPSGIPERFSGSSSGGTATLTISGAQAEDEDDYYCQSTDSSGNTVFGGGTRLTVL
Consider B6, for which the binding result in assay [1], in assay [2] and in assay [3] was “binds” in each case.

B7: chimeric llama-human IgG1 mAb 72F8 (antibody, V domains shown)
VH: ELQLVESGGGLVQPGGSLRLSCAASGFTFSNYVMSWVRQAPGKGLEWVSDTNSGGSTSYADSVKGRFTISRDNAKNTLYLQMNSLKPEDTALYYCARSFFYGMNYWGKGTQVTVSS
VL: QSALTQPPSLSASPGSSVRLTCTLSSGNNIGSYDISWYQQKAGSPPRYLLNYYTDSRKHQDSGVPSRFSGSKDASANAGLLLISGLQPEDEADYYCSAYKSGSYRWVFGGGTHVTVL
Regarding B7, the binding entry in assay [1], in assay [2] and in assay [3] was “binds” in each case.

B8: chimeric llama-human IgG1 mAb 71A3 (antibody, V domains shown)
VH: EVQLVESGGGLVQPGGSLRLSCAASGFSFKDYDITWVRQAPGKGLEWVSTITSRSGSTSYVDSVKGRFTISGDNAKNTLYLQMNSLKPEDTAVYYCAKVYATTWDVGPLGYGMDYWGKGTLVTVSS
VL: SYELTQPSALSVTLGQTAKITCQGGSLGSSYAHWYQQKPGQAPVLVIYDDDSRPSGIPERFSGSSSGGTATLTISGAQAEDEGDYYCQSADSSGNAAVFGGGTHLTVL
As to B8, the binding result in assay [1], in assay [2] and in assay [3] was “binds” in each case.

B9: chimeric llama-human IgG1 mAb 71G12 (antibody, V domains shown)
VH: QVQLQESGGDLVQPGGSLRVSCVVSGFTFSRYYMSWVRQAPGKGLEWVSSIDSYGYSTYYTDSVKGRFTISRDNAKNTLYLQMNSLKPEDTALYYCARAKTTWSYDYWGQGTQVTVSS
VL: EIVLTQSPSSVTASVGGKVTINCKSSQSVFIASNQKTYLNWYQQRPGQSPRLVISYASTRESGIPDRFSGSGSTTDFTLTISSVQPEDAAVYYCQQAYSHPTFGQGTKVELK
With B9, the binding entry in assay [1] and in assay [2] was “binds” in each case.

B10: chimeric llama-human IgG1 mAb 71G3 (antibody, V domains shown)
VH: QVQLVESGGGLVQPGGSLRVSCAASGFTFSTYYMSWVRQAPGKGLEWVSDIRTDGGTYYADSVKGRFTMSRDNAKNTLYLQMNSLKPEDTALYYCARTRIFPSGYDYWGQGTQVTVSS
VL: QAVVTQEPSLSVSPGGTVTLTCGLSSGSVTTSNYPGWFQQTPGQAPRTLIYNTNSRHSGVPSRFSGSISGNKAALTIMGAQPEDEADYYCSLYPGSTTVFGGGTHLTVL
With B10, the binding result in assay [1] and in assay [2] was “binds” throughout.

B11: chimeric llama-human IgG1 mAb 76G7 (antibody, V domains shown)
VH: QVQLVESGGNLVQPGGSLRLSCAASGFTFSNYYMSWVRQAPGKGLEWVSDIYSDGSTTWYSDSVKGRFTISRDNAKNTLSLQMNSLKSEDTAVYYCARVKIYPGGYDAWGQGTQVTVSS
VL: QAGLTQPPSVSGSPGKTVTISCAGNSSDVGYGNYVSWYQQFPGMAPKLLIYLVNKRASGITDRFSGSKSGNTASLTISGLQSEDEADYYCASYTGSNNIVFGGGTHLTVL
Take B11: the binding entry in assay [1] and in assay [2] was “binds” each time.
